Article PMC9806626
No constants are given. Whether binding was seen depends on the method and setting. For some assays here: In cells and extracts the contact can be indirect. For some assays here: A result given as binding can be weak or reduced; the word gives no strength. For some assays here: Where a sequence is shown, tags or fusion partners need not be part of it.

Sequences of proteins named here, by UniProt entry; tags and fusion partners are left off. A change or cut given only in a name is not applied to a line headed by its entry.
UniProt Q9SSS9: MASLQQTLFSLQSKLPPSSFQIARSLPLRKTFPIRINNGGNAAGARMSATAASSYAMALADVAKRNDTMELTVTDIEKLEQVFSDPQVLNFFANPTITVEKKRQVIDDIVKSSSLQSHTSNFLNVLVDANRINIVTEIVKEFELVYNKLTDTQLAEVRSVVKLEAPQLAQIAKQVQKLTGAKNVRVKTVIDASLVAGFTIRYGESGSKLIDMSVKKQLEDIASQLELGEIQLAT

B1: AtCGL160, endogenous in wild-type (Col-0) thylakoids (protein, UniProt O82279 47-350)
chain: GEYGGPPTTTKLRKYWGGEKEDPITSTDLIWNRDFMDQMKKLFDDPNDSSLDPSPSKEKSSGFLSFSRVMSLDSMDVDLSKELASSSKSVVKNRLDTSKSEAKKQMSKAIVSPKWKLAPTRREQEKWDRATKAATGGSDVMFRELRRPRGDPEVQAAKDREQYFKLKNKIQVLTLGIGGVGLVSAYISYTPEIALSFGAGLLGSLAYMRMLGNSVDAMADGARGVAKGAANQPRLLVPVVLVMIFNRWNAILVPEYGFMHLELIPMLVGFFTYKIATFFQAIEEAISITTQKPESISPDTQASD

Legend:
[1] = molecular target: T1, BD-AtCGL160N (AtCGL160 29–206 aa fused to the GAL4 DNA-binding domain) (Arabidopsis thaliana) (UniProt O82279); experiment: two-hybrid; Matchmaker GAL4 system (Clontech), bait pGBKT7, prey pGADT7, yeast AH109; growth on SD -Leu/-Trp/-His/-Ade in serial dilutions
T1 sequence: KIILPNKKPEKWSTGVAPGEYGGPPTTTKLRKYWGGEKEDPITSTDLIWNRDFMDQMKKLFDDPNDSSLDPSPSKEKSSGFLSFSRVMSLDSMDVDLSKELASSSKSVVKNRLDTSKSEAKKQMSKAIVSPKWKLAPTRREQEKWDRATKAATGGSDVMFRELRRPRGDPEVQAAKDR

[2] = molecular target: CF1-CFO holo-complex (chloroplast ATP synthase), endogenous (Arabidopsis thaliana (endogenous in Col-0)); experiment: cross-linking; WT (Col-0) thylakoid membranes treated with 2.5 mM DSP for 20 min on ice, quenched with 60 mM Tris/HCl pH 7.5; BN/SDS-PAGE (2D) and immunodetection of AtCGL160 and the γ subunit; compared with untreated thylakoids

binding [1]	binding [2]	Molecule
no binding	–	AD-AtCGLD11 (Arabidopsis thaliana)
no binding	–	AD-CF1-γ
no binding	–	AD-CF1-δ (from UniProt Q9SSS9)
no binding	–	AD-CFO-b′ (soluble domain, 109–219 aa) (domain or fragment)
–	binds	B1
